Consider five molecules from paper doi:10.1101/2021.07.12.452044.

The chains behind the UniProt entries cited, without tags or fusion partners.
UniProt O15042: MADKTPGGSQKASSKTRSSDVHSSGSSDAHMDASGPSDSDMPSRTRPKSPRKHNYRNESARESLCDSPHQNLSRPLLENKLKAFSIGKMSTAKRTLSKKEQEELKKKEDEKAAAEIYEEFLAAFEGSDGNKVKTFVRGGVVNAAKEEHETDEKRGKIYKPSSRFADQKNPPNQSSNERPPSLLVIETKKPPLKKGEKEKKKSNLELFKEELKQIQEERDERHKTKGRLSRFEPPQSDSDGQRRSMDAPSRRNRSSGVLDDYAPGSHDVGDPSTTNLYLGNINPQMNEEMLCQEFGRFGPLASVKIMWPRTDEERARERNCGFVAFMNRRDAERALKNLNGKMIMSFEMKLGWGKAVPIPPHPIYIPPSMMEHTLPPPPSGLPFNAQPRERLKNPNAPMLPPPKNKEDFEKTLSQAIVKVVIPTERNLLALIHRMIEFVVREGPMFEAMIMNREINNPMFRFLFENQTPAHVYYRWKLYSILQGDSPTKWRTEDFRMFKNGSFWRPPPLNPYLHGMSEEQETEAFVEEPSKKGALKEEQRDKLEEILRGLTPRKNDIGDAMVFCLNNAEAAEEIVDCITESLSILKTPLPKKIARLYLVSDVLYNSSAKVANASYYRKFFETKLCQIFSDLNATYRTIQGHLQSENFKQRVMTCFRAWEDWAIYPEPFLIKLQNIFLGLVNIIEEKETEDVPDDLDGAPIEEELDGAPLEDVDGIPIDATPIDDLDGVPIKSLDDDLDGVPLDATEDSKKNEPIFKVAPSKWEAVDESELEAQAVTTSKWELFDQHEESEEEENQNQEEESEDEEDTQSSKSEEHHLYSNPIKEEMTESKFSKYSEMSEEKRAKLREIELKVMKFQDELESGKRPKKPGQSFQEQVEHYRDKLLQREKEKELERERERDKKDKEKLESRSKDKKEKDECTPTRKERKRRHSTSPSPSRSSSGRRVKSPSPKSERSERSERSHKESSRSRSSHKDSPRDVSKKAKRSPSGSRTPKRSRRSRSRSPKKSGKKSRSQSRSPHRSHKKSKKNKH
UniProt P98175: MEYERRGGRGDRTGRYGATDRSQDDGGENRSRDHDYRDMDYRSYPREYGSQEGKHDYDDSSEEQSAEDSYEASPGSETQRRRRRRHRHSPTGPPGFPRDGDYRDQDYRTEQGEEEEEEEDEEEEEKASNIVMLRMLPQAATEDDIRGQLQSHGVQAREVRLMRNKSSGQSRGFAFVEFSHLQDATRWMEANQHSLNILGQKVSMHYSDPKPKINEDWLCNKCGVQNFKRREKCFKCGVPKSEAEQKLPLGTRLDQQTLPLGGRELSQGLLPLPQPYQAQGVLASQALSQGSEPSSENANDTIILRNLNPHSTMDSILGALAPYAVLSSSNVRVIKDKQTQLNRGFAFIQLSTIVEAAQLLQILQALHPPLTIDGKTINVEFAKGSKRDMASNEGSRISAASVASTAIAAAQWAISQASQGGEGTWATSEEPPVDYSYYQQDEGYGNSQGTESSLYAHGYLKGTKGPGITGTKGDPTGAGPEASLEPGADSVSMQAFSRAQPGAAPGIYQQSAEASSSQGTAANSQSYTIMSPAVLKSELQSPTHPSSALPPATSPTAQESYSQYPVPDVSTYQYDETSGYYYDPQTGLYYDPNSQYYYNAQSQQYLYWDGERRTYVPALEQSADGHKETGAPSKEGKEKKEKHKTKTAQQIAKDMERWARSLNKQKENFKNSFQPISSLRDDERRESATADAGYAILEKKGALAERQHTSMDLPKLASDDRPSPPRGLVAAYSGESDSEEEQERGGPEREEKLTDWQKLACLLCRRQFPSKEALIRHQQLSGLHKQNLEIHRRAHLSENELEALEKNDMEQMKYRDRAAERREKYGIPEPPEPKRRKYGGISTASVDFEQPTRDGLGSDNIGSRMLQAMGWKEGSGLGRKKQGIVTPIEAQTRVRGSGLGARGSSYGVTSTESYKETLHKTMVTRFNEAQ

The labels stand for the following.
B1: RBM17 (protein, UniProt Q96I25 1-401)
chain: MSLYDDLGVETSDSKTEGWSKNFKLLQSQLQVKKAALTQAKSQRTKQSTVLAPVIDLKRGGSSDDRQIVDTPPHVAAGLKDPVPSGFSAGEVLIPLADEYDPMFPNDYEKVVKRQREERQRQRELERQKEIEEREKRRKDRHEASGFARRPDPDSDEDEDYERERRKRSMGGAAIAPPTSLVEKDKELPRDFPYEEDSRPRSQSSKAAIPPPVYEEQDRPRSPTGPSNSFLANMGGTVAHKIMQKYGFREGQGLGKHEQGLSTALSVEKTSKRGGKIIVGDATEKDASKKSDSNPLTEILKCPTKVVLLRNMVGAGEVDEDLEVETKEECEKYGKVGKCVIFEIPGAPDDEAVRIFLEFERVESAIKAVVDLNGRYFGGRVVKACFYNLDKFRVLDLAEQV
B2: DDX46 (protein, UniProt Q7L014 1-1031)
chain: MGRESRHYRKRSASRGRSGSRSRSRSPSDKRSKRGDDRRSRSRDRDRRRERSRSRDKRRSRSRDRKRLRRSRSRERDRSRERRRSRSRDRRRSRSRSRGRRSRSSSPGNKSKKTENRSRSKEKTDGGESSKEKKKDKDDKEDEKEKDAGNFDQNKLEEEMRKRKERVEKWREEQRKKAMENIGELKKEIEEMKQGKKWSLEDDDDDEDDPAEAEKEGNEMEGEELDPLDAYMEEVKEEVKKFNMRSVKGGGGNEKKSGPTVTKVVTVVTTKKAVVDSDKKKGELMENDQDAMEYSSEEEEVDLQTALTGYQTKQRKLLEPVDHGKIEYEPFRKNFYVEVPELAKMSQEEVNVFRLEMEGITVKGKGCPKPIKSWVQCGISMKILNSLKKHGYEKPTPIQTQAIPAIMSGRDLIGIAKTGSGKTIAFLLPMFRHIMDQRSLEEGEGPIAVIMTPTRELALQITKECKKFSKTLGLRVVCVYGGTGISEQIAELKRGAEIIVCTPGRMIDMLAANSGRVTNLRRVTYVVLDEADRMFDMGFEPQVMRIVDNVRPDRQTVMFSATFPRAMEALARRILSKPIEVQVGGRSVVCSDVEQQVIVIEEEKKFLKLLELLGHYQESGSVIIFVDKQEHADGLLKDLMRASYPCMSLHGGIDQYDRDSIINDFKNGTCKLLVATSVAARGLDVKHLILVVNYSCPNHYEDYVHRAGRTGRAGNKGYAYTFITEDQARYAGDIIKALELSGTAVPPDLEKLWSDFKDQQKAEGKIIKKSSGFSGKGFKFDETEQALANERKKLQKAALGLQDSDDEDAAVDIDEQIESMFNSKKRVKDMAAPGTSSVPAPTAGNAEKLEIAKRLALRINAQKNLGIESQDVMQQATNAILRGGTILAPTVSAKTIAEQLAEKINAKLNYVPLEKQEEERQDGGQNESFKRYEEELEINDFPQTARWKVTSKEALQRISEYSEAAITIRGTYFPPGKEPKEGERKIYLAIESANELAVQKAKAEITRLIKEELIRLQNSYQPTNKGRYKVL
B3: SF1 (protein, UniProt Q15637 1-639)
chain: MATGANATPLDFPSKKRKRSRWNQDTMEQKTVIPGMPTVIPPGLTREQERAYIVQLQIEDLTRKLRTGDLGIPPNPEDRSPSPEPIYNSEGKRLNTREFRTRKKLEEERHNLITEMVALNPDFKPPADYKPPATRVSDKVMIPQDEYPEINFVGLLIGPRGNTLKNIEKECNAKIMIRGKGSVKEGKVGRKDGQMLPGEDEPLHALVTANTMENVKKAVEQIRNILKQGIETPEDQNDLRKMQLRELARLNGTLREDDNRILRPWQSSETRSITNTTVCTKCGGAGHIASDCKFQRPGDPQSAQDKARMDKEYLSLMAELGEAPVPASVGSTSGPATTPLASAPRPAAPANNPPPPSLMSTTQSRPPWMNSGPSESRPYHGMHGGGPGGPGGGPHSFPHPLPSLTGGHGGHPMQHNPNGPPPPWMQPPPPPMNQGPHPPGHHGPPPMDQYLGSTPVGSGVYRLHQGKGMMPPPPMGMMPPPPPPPSGQPPPPPSGPLPPWQQQQQQPPPPPPPSSSMASSTPLPWQQNTTTTTTSAGTGSIPPWQQQQAAAAASPGAPQMQGNPTMVPLPPGVQPPLPPGAPPPPPPPPPGSAGMMYAPPPPPPPPMDPSNFVTMMGMGVAGMPPFGMPPAPPPPPPQN

No constants are given. Whether binding was seen depends on the method and setting. In cells and extracts the contact can be indirect. Here binding means that the protein was enriched with, or labelled near, the bait; the list need not be complete. Tags and fused reporters may be left off the sequences shown.

The assay concerns the target T1, wild-type RBM20 C-terminally fused to BirA* (BioID) and FLAG tag (human) (UniProt Q5T481).
T1 sequence: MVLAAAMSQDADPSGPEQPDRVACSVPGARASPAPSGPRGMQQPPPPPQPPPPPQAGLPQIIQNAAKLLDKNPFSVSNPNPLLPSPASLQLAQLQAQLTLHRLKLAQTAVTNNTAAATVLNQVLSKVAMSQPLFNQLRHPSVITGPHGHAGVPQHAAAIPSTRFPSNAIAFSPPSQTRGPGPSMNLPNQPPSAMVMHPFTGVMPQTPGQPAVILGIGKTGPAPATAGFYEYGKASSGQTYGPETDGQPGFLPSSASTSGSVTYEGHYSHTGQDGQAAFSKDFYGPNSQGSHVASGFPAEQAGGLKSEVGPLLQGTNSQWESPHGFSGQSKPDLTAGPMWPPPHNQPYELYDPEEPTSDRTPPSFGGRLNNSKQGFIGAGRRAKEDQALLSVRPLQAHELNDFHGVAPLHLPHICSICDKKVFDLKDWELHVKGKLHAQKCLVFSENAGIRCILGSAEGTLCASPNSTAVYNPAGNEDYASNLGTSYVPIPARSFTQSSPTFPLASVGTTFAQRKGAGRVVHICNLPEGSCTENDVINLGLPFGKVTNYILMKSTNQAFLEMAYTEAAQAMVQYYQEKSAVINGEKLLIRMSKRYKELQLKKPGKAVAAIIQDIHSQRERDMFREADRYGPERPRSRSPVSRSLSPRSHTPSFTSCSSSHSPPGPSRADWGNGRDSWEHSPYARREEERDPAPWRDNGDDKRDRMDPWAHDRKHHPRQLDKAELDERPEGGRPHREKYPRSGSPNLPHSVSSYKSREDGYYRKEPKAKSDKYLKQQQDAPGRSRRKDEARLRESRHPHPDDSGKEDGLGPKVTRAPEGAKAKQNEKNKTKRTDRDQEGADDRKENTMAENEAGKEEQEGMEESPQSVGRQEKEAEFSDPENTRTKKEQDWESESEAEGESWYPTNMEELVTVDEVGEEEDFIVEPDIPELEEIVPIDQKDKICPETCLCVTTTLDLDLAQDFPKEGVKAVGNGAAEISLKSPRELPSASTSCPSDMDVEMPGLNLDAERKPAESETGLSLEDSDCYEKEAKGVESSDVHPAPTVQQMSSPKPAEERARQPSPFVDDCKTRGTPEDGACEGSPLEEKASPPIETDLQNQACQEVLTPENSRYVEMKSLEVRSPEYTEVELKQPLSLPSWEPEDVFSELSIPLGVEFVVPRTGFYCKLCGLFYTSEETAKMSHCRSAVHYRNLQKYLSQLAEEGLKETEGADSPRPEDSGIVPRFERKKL
As to the kind of experiment: proximity labelling.
With U2SURP (from UniProt O15042 1-1029), the binding result is “binds”.
The entry for RBM10 (from UniProt P98175 1-930) is “binds”.
The entry for B1 is “binds”; for B2 it is “binds”; for B3 it is “binds”.
